According to the supplement of paper PMC12872613:
Counter-ions that a name gives are not always drawn. The list shows a part of the results. No stated cut-off is given here; in the data, active = 0.7 or more and inactive = the rest. Repeats are few or missing, and single values can be far off.

Tested on: MiaPaCa-2 CLSA-25
Experiment: cell death relative to DMSO vehicle (fraction); higher = more cytotoxic
Settings: 5 µM; treatment time 48 h; medium cystine 25 µM

Row | SMILES | cell death
1 | CCCCCCCCCCCC1=C(O)C(=O)C=C(O)C1=O [Embelin] | inactive: 0.259
2 | CCCC[S+]([O-])c1sc2nc(-c3cccs3)cc(-c3ccccc3)c2c1N (stereo unspecified) | inactive: 0.0551
3 | CCC(=O)O[C@]1(C(=O)SCF)[C@H](C)C[C@H]2[C@@H]3C[C@H](F)C4=CC(=O)C=C[C@]4(C)[C@@]3(F)[C@@H](O)C[C@@]21C [Fluticasone propionate] | active: 0.772
4 | Cc1nc(Nc2cnn(C3CCNCC3)c2)nc2c1N(C)C(=O)c1cc3ccccc3cc1N2C | inactive: 0.338
5 | O=c1oc2c(O)c(O)cc3c(=O)oc4c(O)c(O)cc1c4c23 [Ellagic acid] | inactive: -0.0313
6 | CNC(=O)[C@H](Cc1c[nH]c2ccccc12)NC(=O)[C@@H](CC(=O)NO)CC(C)C [Ilomastat] | inactive: 0.171
7 | O=C(O)CCC(CP(=O)(O)O)C(=O)O (stereo unspecified) | inactive: 0.358
8 | CC(CN)C(=O)O (racemic) | inactive: 0.0348
9 | N#Cc1ccnc(N2C(=O)CC[C@H]2C(=O)N(c2cncc(F)c2)[C@H](C(=O)NC2CC(F)(F)C2)c2ccccc2Cl)c1 [Ivosidenib] | inactive: 0.191
10 | CCCCCCc1ccc(O)cc1O [Hexylresorcinol] | inactive: 0.558
11 | COc1ccc(-n2nc(C(N)=O)c3c2C(=O)N(c2ccc(N4CCCCC4=O)cc2)CC3)cc1 [Apixaban] | inactive: 0.0693
12 | CC(=O)Nc1nnc(S(N)(=O)=O)s1 [Acetazolamide] | inactive: 0.165
13 | O=C(/C=C/c1ccc(O)cc1)c1ccc(O)cc1O [Isoliquiritigenin] | inactive: 0.0182
14 | Nc1ncnc2c1ncn2[C@@H]1O[C@H](COP(=O)(O)O)[C@@H](O)[C@H]1O [Adenosine 5'-monophosphate] | inactive: 0.226
15 | N#C[C@@H]1C[C@@H]2C[C@@H]2N1C(=O)[C@@H](N)C12CC3CC(CC(O)(C3)C1)C2 [Saxagliptin hydrate] | inactive: 0.337
16 | Cc1cccc(C)c1OCC(C)N (stereo unspecified) [Mexiletine hydrochloride] | active: 0.794
17 | O=C1c2ccccc2C(=O)C1c1ccc(Cl)cc1 [chlophenadione] | inactive: 0.119
18 | COC1=C[C@@H]2[C@@H]3Cc4ccc(OC)c(O)c4[C@]2(CCN3C)CC1=O [Sinomenine hydrochloride] | inactive: -0.00107

Row | SMILES | cell death
19 | CC(C)(Oc1ccc(Cl)cc1)C(=O)O [Clofibric acid] | inactive: 0.375
20 | COc1c2ccoc2cc2oc(=O)ccc12 [Bergapten] | inactive: 0.00267
21 | NC(=O)C[C@H](N)C(=O)O [L-Asparagine] | inactive: 0.042
22 | Cc1ccccc1C(=O)Nc1ccc(C(=O)N2CCCC(O)c3cc(Cl)ccc32)c(C)c1 (stereo unspecified) [Tolvaptan] | inactive: 0.175
23 | NC(N)=O | inactive: 0.227
24 | CCC(C)(Oc1ccc(C2(c3ccc(OC(C)(CC)C(=O)O)cc3)CCCCC2)cc1)C(=O)O (stereo unspecified) [Clinofibrate] | inactive: -0.011
25 | COc1ccc(S(=O)(=O)Nc2nc(-c3cccc([N+](=O)[O-])c3)cs2)cc1OC | inactive: 0.151
26 | Cc1c(-c2ccnn2C)cc(C(=O)NCc2ccc(S(C)(=O)=O)cn2)c(=O)n1-c1cccc(C(F)(F)F)c1 [Alvelestat] | inactive: 0.165
27 | O=C(Nc1cccc(-c2ccccc2)c1)OC1CCCCC1 | inactive: 0.222
28 | c1ccc(C2CN3CCSC3=N2)cc1 (stereo unspecified) [Tetramisole hydrochloride] | inactive: 0.148
29 | O=C(O)c1cccnc1 [Nicotinic acid] | active: 0.704
30 | CC(C)C[C@H](N)C(=O)O [L-Leucine] | inactive: 0.114
31 | CC(C)(CCCCCC(O)CCCCCC(C)(C)C(=O)O)C(=O)O | inactive: 0.0597
32 | Cc1cnc(C(=O)NCCc2ccc(S(=O)(=O)NC(=O)NC3CCCCC3)cc2)cn1 [Glipizide] | inactive: 0.284
33 | N[C@H]1C(O)O[C@H](CO)[C@@H](O)[C@@H]1O (stereo partly specified) [Glucosamine hydrochloride] | inactive: 0.0896
34 | O=CN1CC/C(=C/c2ccc3c(c2)OCO3)C1=O | inactive: 0.0851
35 | C/C(O)=C(\C#N)C(=O)Nc1ccc(C(F)(F)F)cc1 [Teriflunomide] | inactive: 0.109
36 | O=C(/C=C/c1ccc(O)c(O)c1)O[C@@H]1C[C@](O)(C(=O)O)C[C@@H](O)[C@H]1O [Chlorogenic Acid] | inactive: 0.0444

Structural class: those above with an aryl methoxy group
Row | SMILES | cell death
11 | COc1ccc(-n2nc(C(N)=O)c3c2C(=O)N(c2ccc(N4CCCCC4=O)cc2)CC3)cc1 [Apixaban] | inactive: 0.0693
18 | COC1=C[C@@H]2[C@@H]3Cc4ccc(OC)c(O)c4[C@]2(CCN3C)CC1=O [Sinomenine hydrochloride] | inactive: -0.00107
20 | COc1c2ccoc2cc2oc(=O)ccc12 [Bergapten] | inactive: 0.00267
25 | COc1ccc(S(=O)(=O)Nc2nc(-c3cccc([N+](=O)[O-])c3)cs2)cc1OC | inactive: 0.151
